# Measurements taken from US6286513A, “Methods for treating superficial bladder carcinoma” (priority 1998, dated 2001).
# No dose or concentration is given here for some results.
# Test: Overall bladder wall exposure to MMC: urinary AUC, C^n×T, urine production and pH (Table 3)
# Format: in vivo, patients
# Details: mean ± standard deviation
# Text: A commonly used measure of drug exposure for anticancer agent is the product of exposure concentration and duration, or AUC (area under the curve). […] The drug exposure in the urinary bladder can be determined from the drug concentration in the urine and can serve as a measure of exposure to the tumor tissue.
smiles,measurement,setting,value
COC12C(COC(N)=O)C3=C(C(=O)C(C)=C(N)C3=O)N1CC1NC12 (stereo not shown) [MMC],Urine production,customary experimental therapy,1.23 ± 0.86 mL/min
same,pH (urine),customary experimental therapy,6.13 ± 0.84
same,Urine production,high efficacy therapy,1.05 ± 0.74 mL/min
same,pH (urine),high efficacy therapy,6.80 ± 0.81
